From PubChem BioAssay AID1259415 (National Center for Advancing Translational Sciences (NCATS), 2018)
In all, about 410,000 compounds went through this assay and about 18,000 (4.4%) were called active. Inconclusive means that the source gave no clear call. Such entries were picked first, then a sample of the others. Cut-off read from the data, not from the text of the source: active = activity change below about -60%; inconclusive = no clear call, values can overlap the other calls; inactive = above about -39%.

Assay: qHTS Assay for inhibitors of the human cytomegalovirus (HCMV)
Details: HFF cells, HCMV-luciferase reporter, 72 h; at 57.5 µM; hits give low values
Summary of the method: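 Compounds were evaluated in HFFs infected with an HCMV luciferase reporter virus (MOI 1 PFU/cell). Luciferase in lysates collected 72 h post infection served as the replication measure.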
% is set by controls: 0 for no effect and ±100 for the full control effect.

Structure (SMILES) | activity change, negative = inhibition
CC1=NN(c2ccccc2)C(=O)/C1=C\c1cc(C)n(-c2ccccc2)c1C | inconclusive: -57%
CCN(CC)CC#CCC(O)(c1ccccc1)c1ccc(Br)cc1 (centres undefined) | active: -61.8%
COc1ccc(-n2cc(-c3ccccc3)c3c(Nc4ccc(OC)c(OC)c4)ncnc32)cc1 | inconclusive: -52.1%
CN1CC(C(=O)c2ccc(Cl)cc2)C(c2ccc(Cl)cc2Cl)C1 (centres undefined) | inconclusive: -44%
CCn1c(C)c(C)c2cc(C(=O)NCc3ccc(F)cc3)ccc21 | inconclusive: 0%
CC(=O)N1CCC(C(=O)Nc2ccc(S(=O)(=O)N3CCCC(C)C3)cc2)CC1 (centres undefined) | inconclusive: -48.5%
COc1ccc(CCNC(=S)N2CCC(C(=O)c3ccc(F)cc3)CC2)cc1OC | inconclusive: -54.9%
COc1cc(NC(=O)c2n[nH]c(=O)c3ccccc23)cc(OC)c1 | inactive: -35.6%
COc1ccc(-n2nnc3c(=O)n(CC(=O)Nc4cc(C)on4)cnc32)cc1 | inconclusive: -54.7%
CCOC(=O)C(C)On1c(-c2cccc(Cl)c2)nc2ccc([N+](=O)[O-])cc21 (centres undefined) | inactive: 9.81%
Cc1nc(SCC(=O)NCC2CCCO2)c2c3c(sc2n1)CCC3 (centres undefined) | inconclusive: -53.7%
COc1ccc(NC(=O)c2cc3c(s2)CCC(C)C3)cc1S(=O)(=O)N1CCOCC1 (centres undefined) | active: -100%
O=c1[nH]c(CN2CCN(S(=O)(=O)/C=C/c3ccccc3)CC2)nc2cc(Cl)ccc12 | inactive: -36.6%
O=S(=O)(c1ccc(-c2n[nH]c(=S)o2)cc1)N1CCCC1 | inconclusive: -54.2%
NS(=O)(=O)c1ccc(CCNC(=O)c2ccc(Cl)c(S(=O)(=O)N3CCCCC3)c2)cc1 | inconclusive: -50%
CC(=O)c1ccc(Nc2cc(C)nc3ccccc23)cc1 | inconclusive: -52.8%
Oc1cccc(-c2nc3c4c(ncn3n2)-c2ccccc2CC42CCCC2)c1 | active: -93.3%
Cn1nnnc1SCCNCc1ccccc1OCc1ccccc1Cl | inconclusive: -53.7%
CN(C)C(=S)Nc1ccc(Cl)cc1 | inconclusive: -45.5%
O=C(OCc1cc([N+](=O)[O-])cc2c1OCOC2)c1ccc2ccccc2n1 | inconclusive: -40.2%
O=C1CCCc2cc3c(cc21)CC1(C3)Cc2cc3c(cc2C1)C(=O)CCC3 | active: -80.7%
Cc1ccc(-n2nc3c(c2NC(=O)c2ccco2)CS(=O)(=O)C3)cc1 | inactive: 13.8%
CCN(CC)CCCNc1sc(S(=O)(=O)c2ccccc2)nc1S(=O)(=O)c1ccc(Cl)cc1 | active: -74.5%
COc1ccc(C(=O)N2CCCCC2c2cc(C(=O)Nc3ccccc3)no2)cc1 (centres undefined) | inconclusive: -45.3%

An excerpt from above in order of molar mass, high to low.
Structure (SMILES) | activity change, negative = inhibition
CCOC(=O)C(C)On1c(-c2cccc(Cl)c2)nc2ccc([N+](=O)[O-])cc21 (centres undefined) | inactive: 9.81%
CCN(CC)CC#CCC(O)(c1ccccc1)c1ccc(Br)cc1 (centres undefined) | active: -61.8%
O=C1CCCc2cc3c(cc21)CC1(C3)Cc2cc3c(cc2C1)C(=O)CCC3 | active: -80.7%
